# The supplement of paper PMC4604168 (melanoma cell lines)
# The list shows a part of the results. Single values are uncertain, as repeats are few or missing.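 The apoptosis fraction was the count of cleaved-PARP antibody-stained nuclei relative to all DNA-stained nuclei, imaged in 1,536-well plates. Screening doses were set so most cells survived, and baseline and induced cleaved-PARP levels vary greatly across cell lines.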
# Columns and labels:
# Assay in all cases: cleaved PARP positive nuclei fraction relative to DMSO control; melanoma cells; higher = more apoptosis
# Details in all cases: library dose: low library concentration; 72 h
# CBRC034 = test system: CBRC034 (line from a melanoma biopsy)
# COLO792 = test system: COLO792
# COLO800 = test system: COLO800
# COLO829 = test system: COLO829
# G361 = test system: G361
# IPC-298 = test system: IPC-298
# IST-MEL1 = test system: IST-MEL1
# LB2518-MEL = test system: LB2518-MEL
# LOXIMVI = test system: LOXIMVI
# MZ2-MEL = test system: MZ2-MEL
# MeWo = test system: MeWo
# RPMI7951 = test system: RPMI7951
# RVH-421 = test system: RVH-421
# SkMel28 = test system: SkMel28
# SkMel30 = test system: SkMel30
# SkMel5 = test system: SkMel5
# UACC257 = test system: UACC257
# UACC62 = test system: UACC62
Compound,cleaved PARP positive nuclei fraction (CBRC034) [%],cleaved PARP positive nuclei fraction (COLO792) [%],cleaved PARP positive nuclei fraction (COLO800) [%],cleaved PARP positive nuclei fraction (COLO829) [%],cleaved PARP positive nuclei fraction (G361) [%],cleaved PARP positive nuclei fraction (IPC-298) [%],cleaved PARP positive nuclei fraction (IST-MEL1) [%],cleaved PARP positive nuclei fraction (LB2518-MEL) [%],cleaved PARP positive nuclei fraction (LOXIMVI) [%],cleaved PARP positive nuclei fraction (MZ2-MEL) [%],cleaved PARP positive nuclei fraction (MeWo) [%],cleaved PARP positive nuclei fraction (RPMI7951) [%],cleaved PARP positive nuclei fraction (RVH-421) [%],cleaved PARP positive nuclei fraction (SkMel28) [%],cleaved PARP positive nuclei fraction (SkMel30) [%],cleaved PARP positive nuclei fraction (SkMel5) [%],cleaved PARP positive nuclei fraction (UACC257) [%],cleaved PARP positive nuclei fraction (UACC62) [%]
"OCCn1cc(-c2cnc3nnn(Cc4ccc5ncccc5c4)c3n2)cn1 + O=c1cc(-c2cccc3c2Sc2ccccc2S3)oc(N2CCOCC2)c1 [KU55933] (first compound 1 µM, partner dose 1 µM)",96.3,94.6,65.5,112,117,123,40,66.6,59.9,81.6,84,169,94.4,77.3,164,241,61,150
"O=C(CCCCCCC(=O)Nc1ccccc1)NO [vorinostat] + Oc1nc(-c2ccc(C(F)(F)F)cc2)nc2c1CSCC2 [XAV939] (first compound 0.08 µM, partner dose 2 µM)",89.1,88,411,117,80.7,92.8,92,70.2,45.6,143,39.7,275,83.6,207,29.8,108,130,37.9
"COCC[n+]1c2c(n(Cc3cnccn3)c1C)C(=O)c1ccccc1C2=O + c1cc(-c2cnn3cc(-c4ccc(OCCN5CCCCC5)cc4)cnc23)ccn1 [Dorsomorphin] (first compound 0.0004 µM, partner dose 0.4 µM)",93.6,66.8,185,154,106,64.8,220,225,41.7,111,71.6,67.5,73.1,177,34.3,277,73.1,98.6
"COCC[n+]1c2c(n(Cc3cnccn3)c1C)C(=O)c1ccccc1C2=O + CCN(CC)CCCCNc1ncc2cc(-c3cc(OC)cc(OC)c3)c(NC(=O)NC(C)(C)C)nc2n1 [PD173074] (first compound 0.0004 µM, partner dose 0.1 µM)",46.3,80,143,70.1,83,93.1,158,186,49.7,144,123,55.3,53.6,85.8,23.4,118,59.2,40.4
"COc1cc(Nc2ncc(F)c(Nc3ccc4c(n3)NC(=O)C(C)(C)O4)n2)cc(OC)c1OC [Tamatinib] + COc1ccc2c(c1)CCC1C2CCC2(C)C(NCCCCCCN3C(=O)C=CC3=O)CCC12 [U73122] (first compound 0.4 µM, partner dose 0.4 µM)",101,158,145,108,148,158,113,100,37.9,125,58.1,43.9,44.3,131,24.1,57.6,188,233
"O=C(CCCCCCC(=O)Nc1ccccc1)NO [vorinostat] + O=c1cc(-c2cccc3c2Sc2ccccc2S3)oc(N2CCOCC2)c1 [KU55933] (first compound 0.08 µM, partner dose 1 µM)",121,78.4,64.1,78.6,112,107,26.9,82.5,25.1,29.1,120,87.7,19.1,305,208,29,86.7,38.7
"C=CCn1c(=O)c2cnc(Nc3ccc(N4CCN(C)CC4)cc3)nc2n1-c1cccc(C(C)(C)O)n1 + COc1ccc2c(c1)CCC1C2CCC2(C)C(NCCCCCCN3C(=O)C=CC3=O)CCC12 [U73122] (first compound 0.02 µM, partner dose 0.4 µM)",104,148,308,110,104,67.8,531,201,113,88.9,57.3,78.6,87.5,127,115,187,268,90
"CC1(C)NC(=O)N(c2ccc([N+](=O)[O-])c(C(F)(F)F)c2)C1=O [nilutamide] + O=C1NC(=O)/C(=C/c2ccc(-c3ccc(F)cc3O)o2)S1 [AS252424] (first compound 1 µM, partner dose 1 µM)",120,98.9,86.4,116,54.7,290,56.5,86.8,70.6,179,21.4,50.7,51.1,120,23,29.1,178,92.7
"C[C@@H]1CCN(C(=O)CC#N)C[C@@H]1N(C)c1ncnc2[nH]ccc12 + COc1ccc(COc2ccc(Cc3cnc(N)nc3N)cc2OC)cc1 [GW2580] (first compound 1 µM, partner dose 1 µM)",78.6,108,52.3,80.6,65.2,54.3,42.5,83.9,65.3,196,316,97.9,57.7,80.1,307,57.3,92.8,89.4
"O=C(Nc1cccc(Cl)c1)Nc1ncc(CCNc2ncnc3ccsc23)s1 + CCCCCCCCCCCC1=C(O)C(=O)C=C(O)C1=O [Embelin] (first compound 0.0008 µM, partner dose 1.2 µM)",89.8,171,120,96.2,174,109,30.9,148,87.3,23.5,26.3,62.8,127,175,50.3,82.9,41.3,117
"NC(=O)Nc1cc(-c2cccc(F)c2)sc1C(=O)N[C@H]1CCCNC1 + COC(=O)c1sccc1S(=O)(=O)Nc1ccc(Nc2ccccc2)cc1OC [GSK0660] (first compound 0.02 µM, partner dose 1 µM)",142,109,172,90.9,76.5,52.6,37.4,68.2,65,83.8,52.9,37.4,35.2,89.2,30.8,23.4,82.1,36.5
"COc1cc(Nc2ncc(F)c(Nc3ccc4c(n3)NC(=O)C(C)(C)O4)n2)cc(OC)c1OC [Tamatinib] + COc1cc2ncnc(Nc3ccc(Oc4ccccc4)cc3)c2cc1OC [SrcI1] (first compound 0.4 µM, partner dose 2 µM)",140,152,114,106,166,32.6,92.4,88.4,35.9,169,149,93.4,80.5,233,49.1,191,30.2,104
